Source: publication PMC6572064, “Discovery of 2-(1-(3-(4-Chloroxyphenyl)-3-oxo- propyl)pyrrolidine-3-yl)-1H-benzo[d]imidazole-4-carboxamide: A Potent Poly(ADP-ribose) Polymerase (PARP) Inhibitor for Treatment of Cancer” (Molecules, 2019)
“And” between values parts separate entries of the source, which are not always exact repeats. Equal entries are not always repeated.

Tested on: CAPAN-1 (a BRCA-2-mutated pancreatic cancer cell line)
Assay: Cell proliferation assay, three-day, CellTiter-Glo, CAPAN-1
Type: cell-based
Method: A three-day assay was conducted. A cell suspension was prepared. Cell density was counted by an automated cell counter and then diluted to the required density, according to seeding density. 50 μL cells were seeded into 384-well plate in growth medium according to the plate map. The cells were incubated at 37 °C, 5% CO2 overnight.
200× compound solution in DMSO was prepared and diluted with growth medium to 26× final concentration by addition of 26 μL 200× compounds to 174 μL growth medium. Then 2 μL of diluted compound solution was added to cells and the cell was incubated at 37 °C, 5% CO2 for 72 h.
The assay plate was equilibrated to room temperature prior to measurement. 15 μL of CellTiter-Glo Reagent was added into each well and the contents were mixed for 2 min on an orbital shaker to induce cell lysis. The cells were incubated at room temperature for 60 min to stabilize luminescent signal. Luminescence was recorded on the Envision system.

[1] = CAPAN-1, curve fit parameter, supplement Summary sheet
[2] = CAPAN-1, curve-fit output, Inh %
[3] = CAPAN-1, summary line of the curve fit
[4] = CAPAN-1, curve-fit parameter (Inh %)

| Structure (SMILES) | Bottom [1] | Hillslope [1] | Top [1] | Hillslope (CAPAN-1, curve-fit output) | Bottom [2] | Top [2] | Bottom [3] | Hillslope [3] | Top [3] | Hillslope (CAPAN-1, curve-fit parameter) | Top [4] |
| --- | --- | --- | --- | --- | --- | --- | --- | --- | --- | --- | --- |
| NC(=O)c1cccc2[nH]c(C3CCN(CCCNc4ccccc4)C3)nc12 (stereo not drawn) [Compound 5ch, 2-(1-(3-(Phenylamino)propyl)pyrrolidin-3-yl)-1H-benzo[d]imidazole-4-carboxamide] | 0.5 | 0.9 | = 100.0 | 0.9232 | 0.5258 | = 100.0 | 0.53 | 0.92 | = 100.0 |  |  |
| C[C@]1(c2nc3c(C(N)=O)cccc3[nH]2)CCCN1 [pc1, Veliparib, reference compound] | -2.5 | 1.4 | = 100.0 |  |  |  |  |  |  | 1.432 and 1.43 | = 100.0 |
| CN[C@@H]1C[C@H]2O[C@@](C)([C@@H]1OC)n1c3ccccc3c3c4c(c5c6ccccc6n2c5c31)C(=O)NC4 [STS, reference compound] | 8.4 | 0.6 | 105.1 |  |  |  |  |  |  |  |  |
| NC(=O)c1cccc2[nH]c(C3CCN(CC(=O)c4ccccc4)C3)nc12 (stereo not drawn) [Compound 5cd, 2-(1-(2-Oxo-2-phenylethyl)pyrrolidin-3-yl)-1H-benzo[d]imidazole-4-carboxa-mide] | 2.3 | 2.3 | = 100.0 | 2.268 | 2.285 | = 100.0 | 2.29 | 2.27 | = 100.0 |  |  |
| NC(=O)c1cccc2[nH]c(C3CCN(CCCC(=O)c4ccccc4)C3)nc12 (stereo not drawn) [Compound 5cc, 2-(1-(4-Oxo-4-phenylbutyl)pyrrolidin-3-yl)-1H-benzo[d]imidazole-4-carboxamide] | 6.1 | 4.6 | 99.8 | 4.62 | 6.121 | 99.81 | 6.12 | 4.62 | 99.81 |  |  |
| NC(=O)c1cccc2[nH]c(C3CCN(CCC(=O)Nc4ccccc4)C3)nc12 (stereo not drawn) [Compound 5cb, 2-(1-(3-Oxo-3-(Phenylamino)propyl)pyrrolidin-3-yl)-1H-benzo[d]imidazole-4-carboxamide] | 4.2 | 1.6 | = 100.0 | 1.634 | 4.171 | = 100.0 | 4.17 | 1.63 | = 100.0 |  |  |
| NC(=O)c1cccc2[nH]c(C3CCN(CCC(=O)c4ccccc4)C3)nc12 (stereo not drawn) [Compound 5cp, 2-(1-(3-Oxo-3-phenylpropyl)pyrrolidin-3-yl)-1H-benzo[d]imidazole-4-carboxamide] | -1.7 | 5.3 | 99.4 |  |  |  |  |  |  | 5.344 and 5.34 | 99.41 |
| COc1ccc(C(=O)CCN2CCC(c3nc4c(C(N)=O)cccc4[nH]3)C2)cc1 (stereo not drawn) [Compound 5ci, 2-(1-(3-(4-Methoxyphenyl)-3-oxopropyl)pyrrolidin-3-yl)-1H-benzo[d]imidazole-4-carboxamide] | -0.159 | 2.9 | 90.3 | 2.876 | -0.1586 | 90.32 | -0.16 | 2.88 | 90.32 |  |  |
| NC(=O)c1cccc2[nH]c(C3CCN(CC(=O)Nc4ccccc4)C3)nc12 (stereo not drawn) [Compound 5ca, 2-(1-(2-Oxo-2-(phenylamino)ethyl)pyrrolidin-3-yl)-1H-benzo[d]imidazole-4-carboxamide] | 11.5 | 1.0 | = 100.0 |  |  |  | 11.48 | 1.05 | = 100.0 |  |  |
| NC(=O)c1cccc2[nH]c(C3CCN(CCC(O)c4ccccc4)C3)nc12 (stereo not drawn) [Compound 5cg, 2-(1-(3-Hydroxy-3-phenylpropyl)pyrrolidin-3-yl)-1H-benzo[d]imi-dazole-4-carboxamide] | 5.2 | 0.9 | = 100.0 | 0.9121 | 5.177 | = 100.0 | 5.18 | 0.91 | = 100.0 |  |  |
| O=C(c1cc(Cc2n[nH]c(=O)c3ccccc23)ccc1F)N1CCN(C(=O)C2CC2)CC1 [pc2, Olaparib, reference compound] | -1.4 | 0.5 | 99.7 |  |  |  |  |  |  | 0.4926 and 0.49 | 99.65 |
| NC(=O)c1cccc2[nH]c(C3CCN(CCC(=O)c4ccc(Cl)cc4)C3)nc12 (stereo not drawn) [Compound 5cj] | 2.7 | 3.5 | 99.5 | 3.49 | 2.693 | 99.46 | 2.69 | 3.49 | 99.46 |  |  |
